Results deposited as PubChem BioAssay AID1224827 (NIAID, 2016).
Test: 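Confirm genes whose knock-down changes LPS-driven TNF promoter activity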 (follow-up of hits). Cell system: RAW264.7 G9 mouse macrophage reporter clone. Knock-down reagent: single siRNA against mouse genes, 100 nM siRNA. Timing: siRNA for 2 days, then LPS about 16 h. Conditions: bacterial lipopolysaccharide (LPS), 10 ng/ml, cells fixed after overnight (about 16 h) stimulation. Measured: 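Imaged nuclear TNF reporter intensity, background removed, scaled per plate and to non-targeting control wells, as z-scores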. Reading the numbers: TNF reporter z-score, mean: higher = stronger Tnf promoter reporter signal. Active means: 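An siRNA is called active when its mean z-score over replicates is at least +2 or at most -2; control wells get no call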.
Here is a random part of about 3,800 deposited reagents. In the full data, about 2,200 (57%) are marked active. 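Active means a strong reporter change in either direction; calls are per siRNA, not per gene; qiagen siRNAs gave weaker effects.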 A number with no mark means an inactive call. The numbers tell different reagents against one gene apart. Not all columns of the deposit are shown.

TNF reporter z-score, mean, by target gene and reagent
Fpr1 (GeneID 14293): #1 -3.17 (active); #2 -4.17 (active); #3 -4.71 (active); #4 5.46 (active); #5 1.86; #6 -0.894
Lrrc14 (GeneID 223664): #1 3.66 (active); #2 -4.94 (active); #3 -5.27 (active); #4 1.78; #5 -0.61; #6 -0.727
Mob3b (GeneID 214944): #1 -0.967; #2 -5.23 (active); #3 -5.41 (active)
Polr2d (GeneID 69241): #1 -4.17 (active); #2 -4.22 (active); #3 -5.06 (active); #4 0.296; #5 -0.319; #6 -4.97 (active)
Onecut2 (GeneID 225631): #1 1.54; #2 -2.82 (active); #3 -3.68 (active); #4 0.776; #5 0.586; #6 -3.24 (active)

Laid out differently: 4 of the entries above.
| Target gene | siRNA no. | TNF reporter z-score, mean |
| --- | --- | --- |
| Lrrc14 (GeneID 223664) | 4 | 1.78 |
| Lrrc14 (GeneID 223664) | 5 | -0.61 |
| Lrrc14 (GeneID 223664) | 6 | -0.727 |
| Mob3b (GeneID 214944) | 1 | -0.967 |
